Measured values published in PubChem BioAssay AID540276 (National Center for Advancing Translational Sciences (NCATS), 2011).
Among all 300,000 compounds or so, about 5,400 (1.8%) were called active. The shares of active, inactive and inconclusive entries below differ from those in the screen. Calls come from the whole dose curve; tested in HEK293 cells. A potency beside an inconclusive call is a rough fit, not a confirmed value.
% is set by controls: 0 for no effect and ±100 for the full control effect; potency is the fitted concentration of half-maximal effect.

Assay: qHTS for inhibitors of binding or entry into cells for Marburg Virus
Settings: Marburg virus pseudotyped entry inhibition, cell reporter; activity change, negative = inhibition: at 37.8 µM (top of the series) unless noted
With `Cc1ccc2c(c1)C1CN(C)CCC1N2C(=S)Nc1ccc(Cl)cc1Cl` (stereo not drawn) the Potency was inconclusive: 5.01 µM [inhibitor, partial curve, poor fit]. In the case of `Cc1ccc(C(=O)N2CCC(C)CC2)cc1C`, the Potency is reported as inconclusive: 23.1 µM [activator, single point]. In the case of `COc1ccc(CN(C)C(=O)c2ccc(NS(=O)(=O)c3ccc(C)c([N+](=O)[O-])c3)cc2)c(OC)c1OC`, the Potency is reported as inconclusive: 0.1 µM [inhibitor, full curve, poor fit]. For `COc1ccccc1Nc1nc(-c2cccc(N3C(=O)c4ccccc4C3=O)c2)cs1`, the Potency was inconclusive: 20 µM [activator, single point]. For `CCC(C)NS(=O)(=O)c1ccc(OCC(=O)Nc2ccc(F)cc2F)cc1` (stereo not drawn), the Potency was inconclusive: 35.5 µM [inhibitor, single point]. In the case of `O=C(CSc1nc(=O)n(CCCN2CCOCC2)c2c1CCCC2)Nc1ccc(F)c(F)c1`, the “activity change, negative = inhibition” value is reported as inactive: -3.77%. In the case of `Cc1cccc(NC(=O)CSc2nnc(Cn3cnc4ccccc43)o2)c1`, the Potency is reported as inconclusive: 29.1 µM [activator, single point]. With `CC1(c2ccc(Cl)cc2Cl)NC(=O)N(CC(=O)N2CCN(C(=O)c3ccco3)CC2)C1=O` (stereo not drawn) the Potency was inconclusive: 35.5 µM [inhibitor, partial curve, poor fit]. For `CCN(C(=O)c1cc2ccccc2oc1=O)c1ccccc1`, the “activity change, negative = inhibition” value was inactive: 13.9%. With `Cc1ccc2oc(-c3ccccc3C(=O)O)cc(=O)c2c1` the Potency was inconclusive: 28.2 µM [activator, single point]. For `Cc1ccccc1OCc1nnc(SCC(=O)Nc2ccc3nc(SCC(=O)NC(C)(C)C)sc3c2)n1C`, the Potency was inconclusive: 22.4 µM [inhibitor, single point]. For `CCOc1ccc(/C=C/c2nc(C#N)c(N3CCN(c4ccc(OC)cc4)CC3)o2)cc1`, the “activity change, negative = inhibition” value was inactive: -15.9% [at 46.1 µM]. With `Cc1ccc(NC(=O)C(C)OC(=O)CCC2CCCCC2)cc1` (stereo not drawn) the “activity change, negative = inhibition” value was inactive: -6% [at 46.1 µM]. In the case of `Oc1ccc(Cn2cc[nH]c2=S)cc1`, the Potency is reported as inconclusive: 0.141 µM [activator, full curve, poor fit]. For `CCOc1cc(/C=C/C(=O)c2ccc(O)cc2)ccc1OCC(=O)N(C)C`, the “activity change, negative = inhibition” value was inactive: -27.3%. In the case of `Cc1oc(C(C)(C)C)cc1C(=O)NC(Cc1ccccc1)C(=O)O` (stereo not drawn), the Potency is reported as inconclusive: 3.55 µM [inhibitor, single point]. In the case of `Cc1cccc(NC(=O)CCC(=O)N/N=C/c2ccncc2)c1`, the Potency is reported as inconclusive: 8.91 µM [activator, partial curve, poor fit]. In the case of `Cc1cccc(C(=O)Nc2nnc(SCC(=O)NC3CC3)s2)c1`, the Potency is reported as inconclusive: 22.4 µM [activator, single point]. For `NC(=O)C1CCN(C(=O)c2ccc3nc(N4CCCCC4)sc3c2)CC1`, the Potency was inconclusive: 7.08 µM [activator, partial curve]. For `COCCn1nnnc1C(C(C)C)N(Cc1cccnc1)Cc1ccccc1Cl` (stereo not drawn), the Potency was “inactive”. In the case of `CCN(c1cccc(C)c1)S(=O)(=O)c1ccc2c3c(cccc13)C(=O)N2`, the Potency is reported as inconclusive: 20 µM [inhibitor, partial curve, poor fit]. For `Cc1csc(NC(=O)C2CCN(S(=O)(=O)c3cccs3)CC2)n1`, the Potency was inconclusive: 35.5 µM [inhibitor, single point]. With `O=C(NCCCN1CCOCC1)C(=O)NCC1CCCO1` (stereo not drawn) the Potency was inconclusive: 0.224 µM [activator, full curve, poor fit]. For `O=C(Nc1ccccc1N1CCCC1)c1cc2ccccc2o1`, the Potency was inconclusive: 35.5 µM [inhibitor, single point]. In the case of `Cc1ccc(Cn2c(=O)c3cccnc3n(CC(=O)Nc3cccc(C(F)(F)F)c3)c2=O)cc1`, the Potency is reported as inconclusive: 11.2 µM [inhibitor, single point]. For `Cc1cc(C)n(-c2ccc(C(=O)Nc3cccc([N+](=O)[O-])c3)cc2)n1`, the Potency was inconclusive: 11.2 µM [inhibitor, single point]. For `CCN1CCN(CC2CC3C=CC2C3)CC1` (stereo not drawn), the Potency was inconclusive: 14.1 µM [activator, single point]. In the case of `CC(C)c1ccc(NC2CCCN(C(=O)CCc3cnn(C)c3)C2)cc1` (stereo not drawn), the Potency is reported as inconclusive: 0.251 µM [inhibitor, full curve, poor fit]. For `CCCCN(C(=O)C1CCCO1)c1c(N)n(CC(C)C)c(=O)[nH]c1=O` (stereo not drawn), the “activity change, negative = inhibition” value was inactive: -11.9%. For `CC(C)C(NC(=O)C1CCCCC1)C(=O)Nc1ccc2c(c1)OCCO2` (stereo not drawn), the Potency was inconclusive: 6.51 µM [activator, single point]. With `N#Cc1nc(-c2ccc(OCc3ccc(Cl)cc3)cc2)oc1N1CCOCC1` the “activity change, negative = inhibition” value was inactive: 8.04%. In the case of `CC(C)(C)c1cc(C(=O)Nc2cccnc2)cc(C(=O)Nc2cccnc2)c1`, the Potency is reported as inconclusive: 3.98 µM [inhibitor, partial curve, poor fit]. For `COc1ccc(S(=O)(=O)N(CC(=O)NCc2ccco2)c2ccc(C)cc2)cc1OC`, the Potency was inconclusive: 35.5 µM [inhibitor, single point]. For `Cc1noc(NS(=O)(=O)c2ccc(N/C=C/C(=O)c3cccnc3)cc2)c1C`, the “activity change, negative = inhibition” value was inactive: 6.06%. For `COCCN(C(=O)Nc1ccccc1)c1ccccc1C`, the Potency was inconclusive: 2.24 µM [inhibitor, partial curve, poor fit]. In the case of `COc1ccccc1N1CCN(C(=O)c2oc3cc(C)c(C)cc3c2C)CC1`, the Potency is reported as inconclusive: 6.31 µM [inhibitor, partial curve, poor fit]. With `COc1cccc(/C=N/Nc2cc(C)nc(-c3ccccc3O)n2)c1O` the Potency was active: 5.62 µM. With `COc1ccc(C(=O)Nc2ccnn2C2CCN(C(=O)c3cccnc3)CC2)cc1` the “activity change, negative = inhibition” value was inactive: 12.8%. With `O=C(Nc1ccccc1C(=O)O)/C(=C/c1ccc([N+](=O)[O-])cc1)NC(=O)c1ccc(Br)o1` the “activity change, negative = inhibition” value was inactive: 6.28% [at 14.2 µM]. With `Cc1ccc(/C=N/NC(=O)C(O)c2ccccc2)o1` (stereo not drawn) the “activity change, negative = inhibition” value was inactive: 17.3% [at 46.1 µM]. With `COc1ccc(CCN=C(N)NS(=O)(=O)c2ccc3ccccc3c2)cc1` the “activity change, negative = inhibition” value was inactive: 4.12%. In the case of `COc1ccc(OC)c(CN2CCN(C(=O)c3cccc(S(=O)(=O)Nc4ccccc4OC)c3)CC2)c1`, the Potency is reported as inconclusive: 11.2 µM [inhibitor, single point]. In the case of `O=C1CC2(CCCC2)C(=O)N1CN1CCN(S(=O)(=O)c2ccc(F)cc2F)CC1`, the “activity change, negative = inhibition” value is reported as inactive: -2.46%.
